This passage reports taste results from patent US10792257B2, “Pharmaceutical compositions comprising safinamide” (Zambon S.P.A., priority 2016, dated 2020).

This series in a line: Organoleptic characteristics of the active ingredient as noted by the inventors. The conditions noted are these: unmasked active ingredient.

Consider `C[C@H](NCc1ccc(OCc2cccc(F)c2)cc1)C(N)=O` [safinamide methanesulfonate, Safinamide methanesulfonate], for which the taste result is recorded as “unpleasant taste, with a bitter component that is decidedly very intense, astringent”.
